Reference: PubChem BioAssay AID504842 (National Center for Advancing Translational Sciences (NCATS), 2011)
In all, about 330,000 compounds went through this assay and about 100 (0.03%) were called active. The inconclusive results got no clear call from the source; some entries with a clear call stand among them for comparison. Calls come from the whole dose curve; as a rule, active = well fitted inhibition curve with a large enough effect; inconclusive = small, poorly fitted or top-dose-only effect; inactive = flat fitted curve, though single readings scatter. Where the call is inconclusive, the potency comes from a doubtful curve fit.

Tested on: Chaperonin Mm-Cpn (Methanococcus maripaludis)
Assay: Inhibitors of TCP-1 ring complex (TRiC) of Methanococcus maripaludis (MmCpn): qHTS; note: nearly all actives have a fitted effect of over 80% in size;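 for potency: enzyme at 25 nM with ATP substrate at 10 µM during the reaction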
Conditions: purified Mm-Cpn ATPase, ADP Transcreener TR-FRET; activity, negative = inhibition: at the top concentration
How it was run: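 25 nM Mm-CPN + cpd, 10 min 37°C; + 10 uM ATP, 30 min 37°C; buffer 30 mM Tris pH 7.4, 100 mM KCl, 5 mM MgCl2, 1 mM DTT; Transcreener ADP HTRF detection 30 min RT.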
% is set by controls: 0 for no effect and ±100 for the full control effect; potency is the fitted concentration of half-maximal effect.

Row | SMILES | activity, negative = inhibition | Potency
1 | COc1ccc(C2CC(c3cccs3)=Nc3ccccc3S2)cc1 (stereo not given) | inactive: -12.4% | 
2 | O=C(O)c1cc(S(=O)(=O)N2CCN(S(=O)(=O)c3ccc4ccccc4c3)CC2)ccc1Br | inactive: 0.33% | 
3 | Nn1c(CN2CCCCC2)nc2ccccc2c1=O |  | inconclusive: 22.4 µM [inhibitor, single point]
4 | COC(=O)C1CCN(C(=O)c2cc(-c3ccc(Cl)s3)nc3ccccc23)CC1 |  | inconclusive: 141 µM [inhibitor, partial curve, poor fit]
5 | Cc1ccoc1C(=O)NCc1occc1C(=O)O | inactive: -1.61% | 
6 | Cc1nc(SCc2nc3ccc(C(=O)c4ccccc4)cc3[nH]2)c2oc3ccccc3c2n1 |  | inconclusive: 126 µM [inhibitor, partial curve, poor fit]
7 | O=c1c(OC2OC(CO)C(O)C(O)C2OC2OC(CO)C(O)C(O)C2OC2OC(CO)C(O)C(O)C2O)c(-c2ccc(O)c(O)c2)oc2cc(O)cc(O)c12 (stereo not given) |  | inconclusive: 10 µM [inhibitor, single point]
8 | CC(Oc1cc2oc(=O)c3c(c2cc1Cl)CCC3)C(=O)NCc1cccnc1 (stereo not given) |  | inconclusive: 2.82 µM [inhibitor, partial curve, poor fit]
9 | CCOc1ccc(NC(=O)C2=NN(c3ccccc3)C(=O)CC2)cc1S(=O)(=O)N1CCCCC1 |  | inconclusive: 11.2 µM [inhibitor, single point]
10 | COc1cccc(-n2c(SCC(=O)O)nnc2-c2cccnc2)c1 | inactive: -0.854% | 
11 | O=C(CSc1ccccc1)Nc1ccc2c(c1)OCO2 | inactive: 0.445% | 
12 | COc1ccc(C(C)=O)cc1COC(=O)c1ccc(S(=O)(=O)N(C)C)cc1 | inactive: -0.26% | 
13 | CC(Oc1ccccc1)C(=O)N1CCN=C1SCc1ccccc1 (stereo not given) |  | inconclusive: 20 µM [inhibitor, single point]
14 | CN(CC(=O)Nc1ccc(F)c(F)c1F)C(=O)CCc1nc2sc3c(c2c(=O)[nH]1)CCCC3 |  | inconclusive: 100 µM [inhibitor, single point]
15 | O=C(NC1CCCCCC1)C1CC(=O)N(Cc2ccccc2)C1 (stereo not given) |  | inconclusive: 79.4 µM [inhibitor, single point]
16 | COc1cccc(/C=C/C(=O)NNC(=O)CCN2CCN(Cc3ccccc3)CC2)c1 | inactive: 0.745% | 
17 | Cc1cccc(-c2noc(-c3cc4ccccc4oc3=O)n2)c1 |  | inconclusive: 39.8 µM [inhibitor, single point]
18 | Cc1ccc(CNC(=O)CSc2c3c(nc4cc(Cl)ccc24)CCCC3)o1 |  | inconclusive: 200 µM [inhibitor, partial curve, poor fit]
19 | Cc1ccc(C(=O)NCCNc2ccc([N+](=O)[O-])cc2C(F)(F)F)cc1 | inactive: -1.02% | 
20 | c1ccc(CSc2ccc(-c3cccs3)nn2)cc1 |  | inconclusive: 282 µM [inhibitor, partial curve, poor fit]
21 | O=C1O/C(=C\c2ccccc2)c2ccccc21 |  | inconclusive: 17.8 µM [inhibitor, single point]
22 | CC1C(=O)NN=C1C(=O)N/N=C/c1ccco1 (stereo not given) | inactive: -6.92% | 
23 | O=C(c1ccccc1-c1ccccc1)N1CCCC1 | inactive: -2.13% | 
24 | Cc1cc(=O)n(C(NC(=O)c2ccccc2)C(=O)c2ccccc2)cn1 (stereo not given) | inactive: -0.907% | 

Row | SMILES | activity, negative = inhibition | Potency
25 | CCN(CC)C(=O)C1CCCN(C/C(C)=C/c2ccccc2)C1 (stereo not given) | inactive: -1.72% | 
26 | COCCN(C(=O)CSc1nc2nc(C)cc(C)n2n1)c1c(N)n(Cc2ccccc2)c(=O)[nH]c1=O |  | inconclusive: 100 µM [inhibitor, partial curve, poor fit]
27 | Cc1ccc(CNC(=O)C23CN(Cc4ccccc4)CC2C(c2cccc([N+](=O)[O-])c2)=NO3)cc1 (stereo not given) | inactive: 1.99% | 
28 | COc1cc(OC)c(C(=O)O/N=C(\N)c2ccc(C)cc2)cc1OC | inactive: 4.13% | 
29 | O=C(Nc1cc(Cl)ccc1Cl)c1cc(-c2ccco2)on1 |  | inconclusive: 100 µM [inhibitor, single point]
30 | O=C(c1ccco1)c1cn(CC(=O)N2CCCc3ccccc32)c2ccccc12 |  | inconclusive: 100 µM [inhibitor, single point]
31 | CC(=O)NNC(=O)CC(=O)Nc1nc(C23CC4CC(CC(C4)C2)C3)cs1 |  | inconclusive: 100 µM [inhibitor, single point]
32 | Cc1ccc(NC(=O)CN(C)C(=O)c2cc(-c3ccco3)nc3ccccc23)cc1 |  | inconclusive: 14.1 µM [inhibitor, single point]
33 | COc1cccc(NC(=O)C/C(C)=N/NC(=O)c2ccccc2Cl)c1 |  | inconclusive: 12.6 µM [inhibitor, single point]
34 | CCOC(=O)c1c(NC(=O)CSc2nc3ccccc3o2)sc(C(C)=O)c1C |  | inconclusive: 89.1 µM [inhibitor, single point]
35 | Clc1ccc(-c2csc(N3CCCCCC3)n2)cc1 | inactive: -0.418% | 
36 | O=C(c1cccnc1)N1CCc2ccccc2C1 |  | active: 56.2 µM
37 | CN(C)c1cc(-c2ccccc2)nc(-c2ccccc2)n1 |  | inconclusive: 224 µM [inhibitor, partial curve, poor fit]
38 | COc1ccc(S(=O)(=O)Nc2cc(Cl)ccc2OC)cc1 |  | inconclusive: 100 µM [inhibitor, partial curve, poor fit]
39 | Cc1ccc(NC(=O)C2CCN(S(=O)(=O)c3cccs3)CC2)cc1C |  | inconclusive: 56.2 µM [inhibitor, single point]
40 | Cc1c(S(=O)(=O)N(C)C2CCCCC2)c(=O)n(C)c(=O)n1C | inactive: -2.94% | 
41 | O=C1OCCN1C(=O)[C@H]1[C@H](c2ccccc2)C(c2ccc(F)cc2)=NN1c1ccccc1 |  | inconclusive: 112 µM [inhibitor, single point]
42 | COc1ccc(/C=C2/CCc3ccccc3C2=O)cc1CN1CCOCC1 | inactive: -0.165% | 
43 | CN(C)C(CNC(=O)c1ccc2nccnc2c1)c1ccco1 (stereo not given) | inactive: 1.58% | 
44 | O=S(=O)(c1ccc2ccccc2c1)N1C=CC(C(F)(F)F)=NCC1 |  | inconclusive: 56.2 µM [inhibitor, single point]
45 | COc1ccc(-c2nn(-c3ccccc3)cc2/C=C/C(=O)N2CCOCC2)cc1OC |  | inconclusive: 89.1 µM [inhibitor, single point]
46 | Cc1oc(-c2cc(F)ccc2F)nc1CN1CCN(C)C(=O)[C@@H]1C |  | inconclusive: 20 µM [inhibitor, single point]
47 | COc1ccccc1C(=O)Nc1ccc(S(=O)(=O)Nc2onc(C)c2C)cc1 | inactive: 2.51% | 
48 | Cc1ccnc(SC2CC(=O)N(c3ccc([N+](=O)[O-])cc3)C2=O)n1 (stereo not given) |  | inconclusive: 79.4 µM [inhibitor, single point]

Look-ups from the results shown:
For activity, negative = inhibition, `CN(C)C(CNC(=O)c1ccc2nccnc2c1)c1ccco1` (stereo not given) shows inactive: 1.58%
For Potency, `CN(C)c1cc(-c2ccccc2)nc(-c2ccccc2)n1` shows inconclusive: 224 µM [inhibitor, partial curve, poor fit]
For Potency, `CCOC(=O)c1c(NC(=O)CSc2nc3ccccc3o2)sc(C(C)=O)c1C` shows inconclusive: 89.1 µM [inhibitor, single point]

In another format: entries from further up
Cc1oc(-c2cc(F)ccc2F)nc1CN1CCN(C)C(=O)[C@@H]1C
  Potency: inconclusive: 20 µM [inhibitor, single point]
COc1ccccc1C(=O)Nc1ccc(S(=O)(=O)Nc2onc(C)c2C)cc1
  activity, negative = inhibition: inactive: 2.51%

Next part.

Row | SMILES | activity, negative = inhibition | Potency
49 | Cc1c(C)n(C)c2ccc(C(=O)NCCCN3CCN(c4ccccc4F)CC3)cc12 | inactive: -4.4% | 
50 | O=S(=O)(NCc1ccccn1)c1ccc(F)cc1 |  | inconclusive: 14.1 µM [inhibitor, single point]
51 | Cc1ccc(OCCOc2cccc(Br)c2)c([N+](=O)[O-])n1 | inactive: 0.081% | 
52 | CCOc1ncccc1C(=O)NCCCSc1ccccc1 |  | inconclusive: 22.4 µM [inhibitor, single point]
53 | Cc1c(C=O)c2ccccn2c1C(=O)c1ccc(F)cc1 |  | inconclusive: 15.8 µM [inhibitor, single point]
54 | COc1cc(NC(=O)c2cc3cccc(OC)c3o2)cc(C(=O)Nc2cccc(C(F)(F)F)c2)c1 | inactive: -14.6% | 
55 | NC(=O)c1ccc(-c2ccc(Br)cc2)o1 |  | inconclusive: 447 µM [inhibitor, partial curve, poor fit]
56 | CC(=O)N/N=C(\C)CC(=O)Nc1cccc2c1CCCC2 |  | inconclusive: 89.1 µM [inhibitor, single point]
57 | COc1ccc(/C=C\C(=O)NCc2ccc3c(c2)cc(C)n3C)cc1OC |  | inconclusive: 39.8 µM [inhibitor, partial curve, poor fit]
58 | Clc1ccc(-n2nnnc2-c2cnc3ccccc3c2-c2ccccc2)cc1 |  | inconclusive: 10 µM [inhibitor, single point]
59 | O=C(NCC1CCCO1)c1cc2c([nH]c3ccccc32)c(-c2cccc(Br)c2)n1 (stereo not given) |  | inconclusive: 100 µM [inhibitor, partial curve, poor fit]
60 | Nc1nc(SCC(=O)Nc2cc(-c3ccccc3)nn2-c2ccccc2)n[nH]1 | inactive: -0.481% | 
61 | CCN(CC)C(=O)c1sc(NC(=O)c2ccoc2C)c(C(=O)OC)c1C | inactive: 2.48% | 
62 | CCCCC(=O)N1CC(=O)Nc2ccc(F)cc2C1c1ccc(F)cc1 (stereo not given) | inactive: -0.0989% | 
63 | C=CS(=O)c1sc(Cl)c(N2CCOCC2)c1[N+](=O)[O-] (stereo not given) | inactive: -1.91% | 
64 | CC(=O)OC(C(=O)NC1CCCCC1)c1ccccc1 (stereo not given) |  | inconclusive: 50.1 µM [inhibitor, single point]
65 | CC(=O)Nc1ccc(-c2csc(NC(=O)c3ccc(C)o3)n2)cc1 |  | inconclusive: 25.1 µM [inhibitor, single point]
66 | Fc1ccc(N=Cc2ccc[nH]2)cc1 |  | inconclusive: 8.91 µM [inhibitor, partial curve, poor fit]
67 | COc1ccc(-c2cc(-c3ccccc3)nc(SCC(=O)Nc3ncc(C)s3)c2C#N)cc1 |  | inconclusive: 100 µM [inhibitor, single point]
68 | Cc1nn(C(=O)c2cc3sccc3[nH]2)c(C)c1C |  | inconclusive: 70.8 µM [inhibitor, single point]
69 | COc1ccc(-c2nn(C)c(=O)c3ccccc23)cc1NC(=O)Cn1nc(-c2ccccc2)c2ccccc2c1=O |  | inconclusive: 100 µM [inhibitor, partial curve, poor fit]
70 | [2H]c1c([2H])c([2H])c(C(=O)c2sc(N3CCCCCC3)nc2-c2ccccc2)c([2H])c1[2H] |  | inconclusive: 70.8 µM [inhibitor, partial curve, poor fit]
